Measured values reported in patent US20150259430A1 (MAB DISCOVERY, published 2015).
No constants are given. Whether binding was seen depends on the method and setting.

Target: recombinant Fc chimeric conjugate of human IL12 Rβ1 (human) (UniProt P42701)
Assay: ELISA, coated antigen

| binding | Binder |
| --- | --- |
| no binding (tested: OD 0.1 or lower) | Antibody 62 (antibody, V domains shown, rabbit IgG in B-cell supernatant) VH: QSVEESGGRLVTPGTPLTLTCTVSGFSLSTNDIGWVRQAPGKGLEWIGYIWSGVKTYYVGWAKGRFTISKTSSTTVDLKMTSLTTEDTATYFCARVNSFSYVYSLWGPGTLVTVSS VL: AYDMTQTPGSVEVAVGGTVTIKCQASEDIHSSLAWYQQKPGQPPKLLIYLASTLESGVPSRFKGSGSGTEYTLTISGVECADAATYYCQQHHSTSGVDNAFGGGTEVVVK |
| no binding (tested: OD 0.1 or lower) | Antibody 64 (antibody, V domains shown, rabbit IgG in B-cell supernatant) VH: QEQLKESGGGLVTPGTPLTLTCTASGFTISSYDMGWVRQAPGKGLEWIGYIWSGGSTYYANWAKGRFTISKTSTTVDLKMTSLTTEDTATYFCARVEFYSYVYVLWGPGTLVTVSS VL: AFELTQTPSSVEAAVGGTVTIKCQASQSISGCLAWYQQKPGQPPKLLIYLASTLASGVSSRFRGSGSGTEYTLTISGVECDDAATYYCQQHYSSNNVDNAFGGGTEVVVK |
| no binding (tested: OD 0.1 or lower) | Antibody 60 (antibody, V domains shown) VH: QSLEESGGRLVTPGGSLTLTCTVSGSDISSYDMSWVRQAPGKGLEWIGYIWSGTTTYYANWAKGRFTISKTSSTTVDLKMTSLTTEDTATYFCATVNIYTYVYSLWGPGTLVTVSS VL: AYDMTQTPASVEVAVGGTVTIKCQASQSISTALAWYQQKSGQPPKLLIYLASTLASGVPSRFKGSGSGTEYTLTISGVECADAATYYCQQHYSGNNVDNAFGGGTEVVVK |
| no binding (tested: OD 0.1 or lower) | Antibody 55 (antibody, V domains shown, rabbit IgG in B-cell supernatant) VH: QSLEESGGRLVTPGGSLTLTCTVSGSDISSYDMSWVRQAPGKGLEWIGYIWSGTTIYYASWPKGRFTISKTSSTTVDLKMTSLTTEDTATYFCAAINIYTYVYSLWGPGTLVTVSS VL: AYDMTQTPASVEAAVGGTVTIKCQASESIYSSLAWYQQKSGQPPKLLIYLASTLASGVPSRFKGSGSGTDYTLTISGVECADAATYYCQQHYSGSNVDNAFGGGTEVVVK |
| no binding (tested: OD 0.1 or lower) | Antibody 56 (antibody, V domains shown, rabbit IgG in B-cell supernatant) VH: QSLEESGGRLVTPGTPLTLTCTASGFSLSSYDLSWVRQAPGKGLEWIAYIWSGDKTYYANWAKGRFTISKTSSTTVDLKMTSLTTEDTATYFCATVNIYSYVYSLWGPGTLVTVSS VL: AYDMTQTPASVEVAVGGTVTIKCQASQSISTALAWYQQKSGQPPKLLIYLASTLASGVPSRFKGSGSGTEYTLTISGVECADAATYYCQQHYSSNNVDNAFGGGTEVVVK |
| no binding (tested: OD 0.1 or lower) | Antibody 53 (antibody, V domains shown, rabbit IgG in B-cell supernatant) VH: QSLEESGGRLVTPGGSLTLTCTVSGSDISTYDASWVRQAPGKGLEWIGYIWSGTKTYYASWAKGRFTISKTSSTTVDLKMTSLTTEDTATYFCATVNTYTYVYSLWGPGTLVTVSS VL: AYDMTQTPASVEVAVGGTVTIKCQASQSISSSLAWYQQKSGQPPKLLIYLASTLASGVPSRFKGSGSGTEYTLTISGVECADAATYYCQQHYTALNVDNAFGGGTEVVVK |
| no binding (tested: OD 0.1 or lower) | Antibody D11 (antibody, V domains shown, rabbit IgG in B-cell supernatant) VH: QEHLVESGGGLVQPEGSLTLTCTASGFDFSSDDMSWVRQAPGKGLEWIGVIGTGNGGTYYASWAKGRFTISKTSSTTVTLQMTSLTAADTATYFCAAFWGLWGPGTLVTVSS VL: AQVLTQTPSPVSAAVGGTVTINCQSSQNVYRNNRLAWFQQKPGQPPKLLIYTASTLASGVPSRFKGSGSGTQFTLTISDLECDDAATYYCAGGYSTDIYTFGGGTEVVVR |
| no binding (tested: OD 0.1 or lower) | Antibody 87 (antibody, V domains shown, rabbit IgG in B-cell supernatant) VH: QSVEESGGRLVTPGTPLTVTCTVSGFSLSSYVMSWVRQAPGKGLEWIGIIASSGHTYYATWAKGRFTISKTSTTVDLKITSPTTEDTATYFCARYGSDSGWGYYFTLWGPGTLVTVSS VL: AQVLTQTPSSVSEPVGGTVTINCQASENIYSYLSWYQQKRGQPPKLLIYGASTLASGVPSRFKGSGSGTEYTLTISDLECDDAATYYCQSGYYTNSGDLAFGGGTEVVVK |
| no binding (tested: OD 0.1 or lower) | Antibody 28 (antibody, V domains shown, rabbit IgG in B-cell supernatant) VH: QEQLEESGGDLVKPGASLTLTCKVSGFSLTSGYYMCWVRQAPGKGLEWLACIYTGSSGRTYYASWAKGRFTISKTSSTTVTLQMTSLTAADTATFFCARELYLSSVLWGPGTLVTVSS VL: DVVMTQTPASVSEPVGGTVTIKCQASQSISSSYLSWYQQKPGQPPKLLIYRASTLESGVPSRFKGSGSGTEFTLTISDLECADAATYYCQCTDYAGSYVGGAFGGGTEVVVK |
| no binding (tested: OD 0.1 or lower) | Antibody 24 (antibody, V domains shown, rabbit IgG in B-cell supernatant) VH: QSVEESGGRLVTPGTPLTLTCTVSGFSLSSNAISWVRQAPGKGLEWIGFINIYGSTYYASWAKGRFTISRTSTTVDLKMTSLTTEDTATYFCARDRTGDSPTRLDLWGQGTLVTVSS VL: DVVMTQTPASVEAAVGGTVTIKCQASQSISSYLSWYQQKPGQPPKLLIYDASTLASGVPSRFKGSGSGTQFTLTISDLECADAATYYCQCTYGYGASSAYGNAFGGGTEMVVK |

The next lines start with the binder.

| Binder | binding |
| --- | --- |
| Antibody 1 (antibody, V domains shown, rabbit IgG in B-cell supernatant) VH: QSLEESGGRLVTPGTPLTLTCTASGFSLSSYAMIWVRQAPGEGLEYIGIIITGGSAYYANWAKGRFTISRTSTTVDLKMTSLTTEDTATYFCARGYSGSSGDLWGQGTLVTVSS VL: DVVMTQTPASVSEPVGGTVTIKCQASQSISSWLSWYQQKPGQPPKLLIYGASNLASGVSSRFKGSRSGTEYTLTISDLECADAATYYCQCTDYTSKYVGAFGGGTEVLVR | no binding (tested: OD 0.1 or lower) |
| Antibody 47 (antibody, V domains shown, rabbit IgG in B-cell supernatant) VH: QSVEESGGRLVTPGTPLTLTCTVSGFSLSSYAMNWVRQAPGKGLEWIGIIDSSGITYYATWAKGRFTISKTSTTVDLKMTSLTTEDTATYFCARGVTLWGQGTLVTVSS VL: AQVLTQTASPVSAAVGSTVTINCQASQSVYNNNRLSWFQQKPGQPPKLLISGASTLASGVSSRFSGSGSGTQFTLTISDVQCDDAATYYCLGSYDCSSADCGAFGGGTEVVVK | no binding (tested: OD 0.1 or lower) |
| Antibody 32 (antibody, V domains shown, rabbit IgG in B-cell supernatant) VH: QSVEESGGRLVTPGTPLTLTCTVSGFSLSSYDMSWVRQAPGKGLEWIGFIDGDSNTYDATWAKGRFTISKTSTTVDLKITSPTTEDTATYFCTRGFNLWGQGTLVTVSS VL: DVVMTQTPASVSEPVGGTVTIKCQASQSISSYLAWYQQKPGQPPKLLIYKASTLASGVSSRFKGSGSGTEFTLTISDLECADAATYYCQCSAGGRSGIGGFGGGTEVVVK | no binding (tested: OD 0.1 or lower) |
| Antibody 077.D03 (antibody, V domains shown, rabbit IgG in B-cell supernatant) VH: QSVEESGGRLVTPGTPLTLTCTVSGIDLSSNAMSWVRQAPGKGLEWIGFISSSGTTYYASWAKGRFTISKTSTTVDLKITSPTTEDTATYFCTRFDLWGQGTLVTVSS VL: DVVMTQTPASVSEPVGGTVTINCQASQSITTALAWYQQKPGQPPKLLIYKASTLASGVSSRFKGSGSGAEYTLTISDLECADAATYYCQCTGYDTSYVGGFGGGTEVVVK | no binding (tested: OD 0.1 or lower) |
| Antibody 75 (antibody, V domains shown, rabbit IgG in B-cell supernatant) VH: QSVEESGGRLVTPGTPLTLTCTVSGFSLSRNAMSWVRQAPGKGLEWIGIINIYGTTWYASWAKGRFTISKTSSTTVTLKITSPTTEDTATYFCARDYGGDSATRLNLWGQGTLVTVSS VL: DVVMTQTPASVEAAVGGTVTIKCQASQSIGGYLSWYQQKPGQPPKLLIYDASNLEIGVPSRFKGSGSGTEYTLTISDLECADAVTYYCQCTYGYGISSSYGNAFGGGTEVVVK | no binding (tested: OD 0.1 or lower) |
| Antibody 71 (antibody, V domains shown, rabbit IgG in B-cell supernatant) VH: QSVEESGGRLVTPGTPLTLTCTVSGFSLSRNAMSWVRQAPGKGLEWIGIINIYGTTWHAGWAKGRFTISKTSSTTVTLKITSPTTEDTATYFCARDYGGDSATRLNLWGQGTLVTVSS VL: DVVMTQTPASVEAAVGGTVTIKCQASQSIGGYLSWYQQKPGQPPKLLIYDASNLEIGVPSRFKGSGSGTEYTLTISDLECADAVTYYCQCTYGYGISSSYGNAFGGGTEVVVK | no binding (tested: OD 0.1 or lower) |
| Antibody 79 (antibody, V domains shown, rabbit IgG in B-cell supernatant) VH: QSVEESGGRLVTPGTPLTLTCTVSGFSLSSNAMSWVRQAPGKGLEWIGIINIYGSTNYASWAKGRFTISKTSSTTVDLKITSPTTEDTATYFCARDYGGVSATRLDLWGQGTLVTVSS VL: DVVMTQTPASVEAAVGGTVTIKCQASQSIGSYLSWYQQKPGQPPKLLIYDASNLEDGVPSRFKGSGSGTEYTLTISDLECADAVTYYCQCTYGYGISSSYGNAFGGGTEVVVK | no binding (tested: OD 0.1 or lower) |
| Antibody D08 (antibody, V domains shown, rabbit IgG in B-cell supernatant) VH: QSLEESGGRLVTPGTPLTLTCTVSGFSLGTYWMSWVRQAPGRGLDWIGFIGSSGNGNYASWAKGRFTISRASSTTVDLKMTSLTTEDTATYFCARVKYFYYFDLWGQGTLVTVSS VL: AQVLTQTTSPVSAAVGGTVTINCQASESVYGKKYLSWYQQKPGQPPKQLIYEASKLASGVPSRFEGSGSGTQFTLTISGVQCDDAATYYCQGEFSCSSADCTAFGGGTEVVVK | no binding (tested: OD 0.1 or lower) |
| Antibody 52 (antibody, V domains shown, rabbit IgG in B-cell supernatant) VH: QSVEESGGRLVTPGTALTLTCTVSGFSLSSGDMSWVRQAPGKGLEWIGYIWSGVSTYYANWAKGRFTISKTSSTTVDLKMTSLTIEDTATYFCARVDFYSYVYSLWGPGTLVTVSS VL: ALVMTQTPASVEAAVGGTVTIKCQASQSISSCLAWYQQKPGQPPKLLIYSASTLASGVPSRFKGSGSGTEYTLTISGVECADAATYYCQQHYTSNNIDNAFGGGTEVVVK | no binding (tested: OD 0.1 or lower) |
| Antibody B08 (antibody, V domains shown, rabbit IgG in B-cell supernatant) VH: QEHLVESGGGLVQPEGSLTLTCTASGFDFSSDDMSWVRQAPGKGLEWIGVIGTGNGGTYYASWAKGRFTISKTSSTTVTLQMTSLTAADTATYFCAAFWGLWGPGTLVTVSS VL: AQVLTQTASPVSAAVGGTVTITCQSSQSVYNNIRLAWFQQKPGQPPKLLIYTTSSLASGVPSRFKGSGSGTQFTLTISDLECDDAATYYCAGGYSSDIYTFGGGTEVVVR | no binding (tested: OD 0.1 or lower) |
| Antibody 23 (antibody, V domains shown, rabbit IgG in B-cell supernatant) VH: QSLEESGGRLVKPGTPLTLTCTASGFSLSSYYMIWVRQAPGKGLEYIGIISSSGSTYYASWAKGRFTISKTSSTTVDLKMTSLTTEDTATYFCGVNNLWGQGTLVTVSS VL: DPVLTQTPSSVSAAVGGTVTISCQSSQSINNNDLSWFQKKPGQPPKRLIYEASTLTSGVPSRFKGSGSGTQFTLTISDVQCDDAATYYCLGGYYSYGWYFGFGGGTEVVVK | no binding (tested: OD 0.1 or lower) |
